The exact form of at least one protein or probe is not confirmed. At least one result comes from cells or an extract, where the contact may be indirect. No signal at the amounts used counts as a negative.
Target: MAX (UniProt P61244)
Assay: pull-down
Settings: protein in cells
[1] = RIP RT-PCR, only F1 reported as specifically bound, protein details: endogenous in ARPE-19 cells, variant of lncEGFL7OS

Chains of the proteins cited; added tags and fusions are not shown. Residues count along the entry.
UniProt P61244, 2-160: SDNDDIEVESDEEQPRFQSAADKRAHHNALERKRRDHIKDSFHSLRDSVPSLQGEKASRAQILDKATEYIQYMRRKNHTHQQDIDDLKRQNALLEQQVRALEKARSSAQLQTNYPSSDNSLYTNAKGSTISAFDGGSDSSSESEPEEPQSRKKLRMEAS

Row | Sequence | binding result [1] | also measured
1 | AUGGCGUGUGAGUGCAUGGCGAGCGCCUCCAGGACACACUUACUGUUCCCUUGCUCUGGCCAGACGCCAGCCGGACCCUGUGUGUGCGCGCCGUGCUGCUCUUUGCAGCUGCCUGCAAGGGGUUCCUGCGAAGACCAGCACCUUGGGGAAGAGCCUGCGGCUGAACUUGAACUCGCAGCUACCUGA [lncEGFL7OS F2 (208-393)] | no binding | 
2 | UGGGCUCAGGCCCAGAGUGCCAGCUUUGCCCUAUCCCAUAGCCUGGAGCCACCACAGGAGGGGCACUCCACUCUCUUGGGCUCCUGGAGCCUCAGAGGCAGAGCCAGCCGGGAGUGCAGGAGGGAGAACUUUCCUGUGGACGUCCUGUGUUCUCCAGACGCAGAGAACCCUCAUCAACCGAGGGGGAGGUCACUUCCGAAUCCACAGAUGGCGUGUGAGUGCAUGGCGAGCGCCUCCAGGACACACUUACUGUUCCCUUGCUCUGGCCAGACGCCAGCCGGACCCUGUGUGUGCGCGCCGUGCUGCUCUUUGCAGCUGCCUGCAAGGGGUUCCUGCGAAGACCAGCACCUUGGGGAAGAGCCUGCGGCUGAACUUGAACUCGCAGCUACCUGAGUCAGACCUGUGCUUUUUCACCUCUACGGAAGAUGUCAGAGCGUUUCCCUAGCAAUGUUUUAGAAGUUACUUCUGUCUGGAAAAAAAUGGAAAAAAUGGCAAAUUAUGUUAUGUAUAAUUUGAUAAUUUUAAAGAAUUAAUGAUGUAAUUAUUACUCAAACCCA [lncEGFL7OS] |  | binding result (RIP-PCR in HUVEC nuclear lysate, increased by lncEGFL7OS overexpression, protein details: endogenous, antibody Santa Cruz sc-197): binds
3 | AACUCGCAGCUACCUGAGUCAGACCUGUGCUUUUUCACCUCUACGGAAGAUGUCAGAGCGUUUCCCUAGCAAUGUUUUAGAAGUUACUUCUGUCUGGAAAAAAAUGGAAAAAAUGGCAAAUUAUGUUAUGUAUAAUUUGAUAAUUUUAAAGAAUUAAUGAUGUAAUUAUUACUCAAACCCA [lncEGFL7OS F3 (377-557)] | no binding | 
4 | UGGGCUCAGGCCCAGAGUGCCAGCUUUGCCCUAUCCCAUAGCCUGGAGCCACCACAGGAGGGGCACUCCACUCUCUUGGGCUCCUGGAGCCUCAGAGGCAGAGCCAGCCGGGAGUGCAGGAGGGAGAACUUUCCUGUGGACGUCCUGUGUUCUCCAGACGCAGAGAACCCUCAUCAACCGAGGGGGAGGUCACUUCCGAAUCCACAGAUGGCGUGUGAGUGCAUGGCGAGCGCCUCCAG [lncEGFL7OS F1 (1-239)] |  | binding result (RIP RT-PCR in transfected ARPE-19, major MAX-binding domain, protein details: endogenous in ARPE-19 cells, variant of lncEGFL7OS): binds
